Source: US20220356259A1
No constants are given. Whether binding was seen depends on the method and setting. Some results given as binding are weak or reduced against the parent protein; the word gives no strength. Values belong to the binder of their own block, whether it stands above or below them.

Columns and labels:
[1] = target: fusion protein in which the extracellular domain of human GITR is fused with EGFP, on HEK293 cells (human); test: flow cytometry, hybridoma supernatant on hGITR-EGFP cells, anti-mouse Ig-PE
[2] = target: fusion protein in which the extracellular domain of human GITR is fused with the domain of human IgG1-Fc (human); test: ELISA, hGITR-Fc coated at 2 ug/ml, hybridoma supernatant, anti-mouse IgG-HRP; clones with OD>0.8 judged positive
[3] = target: fusion protein in which the extracellular domain of human GITR is fused with EGFP, on HEK293 cells (human); test: flow cytometry, 10 ug/ml C3E2 on hGITR-EGFP HEK293 cells, anti-human Ig-PE

binding [1]: binds
binding [2]: binds
B1: isolated antigen-binding protein 3E2 (mouse hybridoma monoclone) (antibody, V domains shown)
VH: QVQLQESGPGILQPSQTLSLTCSFSGFSLSTFGMGVGWIRQPSGKGLEWLVLILWNDIKYYNPALKSLLTVSKDTSNNQVFLKIASVDTADTATYYCARVDGYYGYFDVWGTGTTVTVSS
VL: DIVMTQSPLSLPVSLGDQASISCRSSQTIVHSNGNTYLEWYLQKPGQSPKLLIYKVSNRFSGVPDRFSGSGSGTDFTLKISRVEAEDLGVYYCFQGSHVPWTFGGGTKLEIK

binding [3]: binds
B2: isolated antigen-binding protein C3E2 (antibody, human IgG1, kappa, V domains shown)
VH: B1 VH
VL: DIVMTQSPLSLPVSLGDQASISCRSSQTIVHSNGNTYLEWYLQKPGQSPKLLIYKVSNRFSGVPDRFSGSGSGTDFTLKISRVEAEDLGVYYCFQGSHVPWTFGGGTKLEIKR
